# Results as given in US20240277730A1, “SUPPRESSION OF COVID-19 REPLICATION BY COVID-19 ENTRY INHIBITORS” (Board of Regents of the University of Nebraska, priority 2021, published 2024).
# Some results were stated once for a whole list of compounds, not compound by compound.
# System: SARS-COV-2
# Format: cell-based
row,Compound,reduction in SARS-CoV-2 infectivity compared to vehicle controls
1,"O=C1Nc2cc(C(F)(F)F)ccc2Oc2ccsc21 [formula (IIa), 7-(trifluoromethyl)benzo[b]-thieno[2,3-f][1,4]oxazepin-10(9H)-one]",> 80%
2,"CN1C(=O)c2ccccc2[S+]([O-])c2cc([N+](=O)[O-])ccc2S1(=O)=O (centres unmarked) [formula (Ia), 6-methyl-2-nitrodibenzo[d,g]-[1,6,2]dithiazocin-7(6H)-one 5,5, 12-trioxide]",> 80%
